Article PMC8164027
These are yes or no findings as the source states them, for the method shown. Binding seen in cells or lysates may run through a third protein. Here binding means that the protein was enriched with, or labelled near, the bait; the list need not be complete. Tags and fused reporters may be left off the sequences shown.

B1: Ser3 (protein, UniProt P40054 1-469)
chain: MTSIDINNLQNTFQQAMNMSGSPGAVCTSPTQSFMNTVPQRLNAVKHPKILKPFSTGDMKILLLENVNQTAITIFEEQGYQVEFYKSSLPEEELIEKIKDVHAIGIRSKTRLTSNVLQHAKNLVCIGCFCIGTNQVDLDYATSRGIAVFNSPFSNSRSVAELVIAEIISLARQLGDRSIELHTGTWNKVAARCWEVRGKTLGIIGYGHIGSQLSVLAEAMGLHVLYYDIVTIMALGTARQVSTLDELLNKSDFVTLHVPATPETEKMLSAPQFAAMKDGAYVINASRGTVVDIPSLIQAVKANKIAGAALDVYPHEPAKNGEGSFNDELNSWTSELVSLPNIILTPHIGGSTEEAQSSIGIEVATALSKYINEGNSVGSVNFPEVALKSLSYDQENTVRVLYIHQNVPGVLKTVNDILSNHNIEKQFSDSNGEIAYLMADISSVDQSDIKDIYEQLNQTSAKISIRLLY
B2: Bcy1, the regulatory subunit of PKA (protein, UniProt P07278 1-416)
chain: MVSSLPKESQAELQLFQNEINAANPSDFLQFSANYFNKRLEQQRAFLKAREPEFKAKNIVLFPEPEESFSRPQSAQSQSRSRSSVMFKSPFVNEDPHSNVFKSGFNLDPHEQDTHQQAQEEQQHTREKTSTPPLPMHFNAQRRTSVSGETLQPNNFDDWTPDHYKEKSEQQLQRLEKSIRNNFLFNKLDSDSKRLVINCLEEKSVPKGATIIKQGDQGDYFYVVEKGTVDFYVNDNKVNSSGPGSSFGELALMYNSPRAATVVATSDCLLWALDRLTFRKILLGSSFKKRLMYDDLLKSMPVLKSLTTYDRAKLADALDTKIYQPGETIIREGDQGENFYLIEYGAVDVSKKGQGVINKLKDHDYFGEVALLNDLPRQATVTATKRTKVATLGKSGFQRLLGPAVDVLKLNDPTRH

Target: T1, N-terminal Myc-tagged Tsa1 with a mutation in its resolving cysteine residue (Tsa1-C171S) (S. cerevisiae) (UniProt P34760)
T1 sequence: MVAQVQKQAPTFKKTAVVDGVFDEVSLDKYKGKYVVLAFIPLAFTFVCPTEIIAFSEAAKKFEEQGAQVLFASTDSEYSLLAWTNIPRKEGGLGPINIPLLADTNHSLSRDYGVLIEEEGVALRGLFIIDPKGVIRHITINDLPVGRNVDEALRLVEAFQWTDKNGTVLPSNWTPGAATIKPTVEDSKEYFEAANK
Test: affinity purification with mass spectrometry; Myc-Tsa1-C171S precipitated with anti-myc affinity beads from lysates of a tsa1 mutant, cells untreated or treated with hydrogen peroxide or AZC for 2 h; 4 h at 4 °C; washes in IPP50 buffer (10 mM Tris pH 8.0, 50 mM NaCl); vector-only control; hits in two of three repeats

Binder	binding
B1	binds
B2	binds
